Experimental data: PMC8313409
No constants are given. Whether binding was seen depends on the method and setting. Binding seen in cells or lysates may run through a third protein. These calls come from enrichment with a bait or labelling near it, and not all partners need be listed.

By UniProt entry, the sequences of proteins in these tests, tags left out. Residues count along the entry.
UniProt P25322: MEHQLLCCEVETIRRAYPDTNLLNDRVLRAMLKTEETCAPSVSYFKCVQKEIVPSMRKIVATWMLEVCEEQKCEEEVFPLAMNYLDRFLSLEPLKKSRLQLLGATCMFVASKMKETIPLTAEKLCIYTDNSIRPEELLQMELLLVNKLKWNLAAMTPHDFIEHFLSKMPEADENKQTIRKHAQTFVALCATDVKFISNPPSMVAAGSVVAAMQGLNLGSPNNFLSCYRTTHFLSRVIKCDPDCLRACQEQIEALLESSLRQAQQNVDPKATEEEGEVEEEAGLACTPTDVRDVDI
UniProt P09405: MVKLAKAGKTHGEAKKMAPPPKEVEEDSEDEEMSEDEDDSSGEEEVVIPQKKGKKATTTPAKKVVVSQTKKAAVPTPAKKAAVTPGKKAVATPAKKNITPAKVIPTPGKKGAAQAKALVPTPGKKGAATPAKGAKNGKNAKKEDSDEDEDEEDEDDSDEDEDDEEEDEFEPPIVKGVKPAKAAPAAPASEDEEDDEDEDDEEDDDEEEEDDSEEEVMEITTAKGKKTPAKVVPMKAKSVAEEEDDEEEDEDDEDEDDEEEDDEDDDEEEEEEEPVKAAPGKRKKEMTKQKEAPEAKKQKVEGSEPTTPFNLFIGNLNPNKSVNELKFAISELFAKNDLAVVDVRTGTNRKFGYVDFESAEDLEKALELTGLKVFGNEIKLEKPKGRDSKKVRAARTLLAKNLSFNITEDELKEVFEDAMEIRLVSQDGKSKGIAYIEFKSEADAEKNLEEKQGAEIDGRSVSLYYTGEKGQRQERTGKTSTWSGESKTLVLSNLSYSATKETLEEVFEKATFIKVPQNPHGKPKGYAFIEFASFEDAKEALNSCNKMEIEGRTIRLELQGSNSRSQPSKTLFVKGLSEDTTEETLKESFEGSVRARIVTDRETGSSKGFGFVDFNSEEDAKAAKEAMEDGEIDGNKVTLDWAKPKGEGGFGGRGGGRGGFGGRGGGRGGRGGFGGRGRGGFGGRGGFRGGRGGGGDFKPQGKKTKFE
UniProt P08113, residues 22-802: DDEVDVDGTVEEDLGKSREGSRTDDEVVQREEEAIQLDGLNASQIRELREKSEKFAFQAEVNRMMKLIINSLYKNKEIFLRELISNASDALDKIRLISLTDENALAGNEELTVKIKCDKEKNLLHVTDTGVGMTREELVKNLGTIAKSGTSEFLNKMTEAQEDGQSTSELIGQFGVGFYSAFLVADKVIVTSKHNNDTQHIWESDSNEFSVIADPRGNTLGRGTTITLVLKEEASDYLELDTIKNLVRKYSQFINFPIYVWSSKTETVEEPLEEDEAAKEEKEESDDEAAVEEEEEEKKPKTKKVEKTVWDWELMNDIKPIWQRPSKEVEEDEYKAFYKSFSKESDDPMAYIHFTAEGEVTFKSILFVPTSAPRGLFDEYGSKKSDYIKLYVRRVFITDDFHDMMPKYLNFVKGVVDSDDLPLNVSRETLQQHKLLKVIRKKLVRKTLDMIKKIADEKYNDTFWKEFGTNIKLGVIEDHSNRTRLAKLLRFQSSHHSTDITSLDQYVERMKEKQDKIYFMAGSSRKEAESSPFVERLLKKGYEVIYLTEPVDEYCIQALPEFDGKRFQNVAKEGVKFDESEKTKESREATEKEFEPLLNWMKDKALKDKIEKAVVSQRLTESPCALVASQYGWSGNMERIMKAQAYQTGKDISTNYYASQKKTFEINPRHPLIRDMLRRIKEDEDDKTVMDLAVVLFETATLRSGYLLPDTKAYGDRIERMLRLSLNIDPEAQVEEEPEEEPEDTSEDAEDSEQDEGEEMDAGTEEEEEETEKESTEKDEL

What was measured:
[1] = molecular target: cyclin D1–APEX (UniProt P25322); assay: proximity labelling; APEX in mESCs incubated 2 d with cyclin D1–APEX EVs in N2B27 medium; biotin-phenol with H2O2; streptavidin pull-down, mass spectrometry and immunoblot
[2] = molecular target: cyclin D1–APEX (UniProt P25322); assay: proximity labelling; APEX in RA-induced N2A cells stably expressing cyclin D1–APEX; biotin-phenol with H2O2 (B+H) against biotin-phenol alone (B); streptavidin beads, mass spectrometry

binding [1]	binding [2]	Substance
binds	–	nucleolin (from UniProt P09405 1-707)
–	binds	Hsp90b1 (from UniProt P08113 22-802)
